Construct, isoform or probe ends are uncertain for at least one entry. Results from cells or extracts need not show a direct contact.
Target: Sp1 (UniProt O89090)
Test: EMSA
Conditions: 30A5 nuclear extract, bands 1 and 2 of four; EMSA: 10 ug nuclear protein, 10 mM HEPES pH 7.9, 50 mM KCl, 5 mM MgCl2, 5 mM DTT, 1 mM EDTA, 10% glycerol, 1 ug poly(dI.dC), 20 ul, on ice 30 min, 4% PAGE; protein in an extract; label: 32P 5' end label, both strands

Amino acid sequences for entries named in this document (tags omitted).
UniProt O89090, whole entry: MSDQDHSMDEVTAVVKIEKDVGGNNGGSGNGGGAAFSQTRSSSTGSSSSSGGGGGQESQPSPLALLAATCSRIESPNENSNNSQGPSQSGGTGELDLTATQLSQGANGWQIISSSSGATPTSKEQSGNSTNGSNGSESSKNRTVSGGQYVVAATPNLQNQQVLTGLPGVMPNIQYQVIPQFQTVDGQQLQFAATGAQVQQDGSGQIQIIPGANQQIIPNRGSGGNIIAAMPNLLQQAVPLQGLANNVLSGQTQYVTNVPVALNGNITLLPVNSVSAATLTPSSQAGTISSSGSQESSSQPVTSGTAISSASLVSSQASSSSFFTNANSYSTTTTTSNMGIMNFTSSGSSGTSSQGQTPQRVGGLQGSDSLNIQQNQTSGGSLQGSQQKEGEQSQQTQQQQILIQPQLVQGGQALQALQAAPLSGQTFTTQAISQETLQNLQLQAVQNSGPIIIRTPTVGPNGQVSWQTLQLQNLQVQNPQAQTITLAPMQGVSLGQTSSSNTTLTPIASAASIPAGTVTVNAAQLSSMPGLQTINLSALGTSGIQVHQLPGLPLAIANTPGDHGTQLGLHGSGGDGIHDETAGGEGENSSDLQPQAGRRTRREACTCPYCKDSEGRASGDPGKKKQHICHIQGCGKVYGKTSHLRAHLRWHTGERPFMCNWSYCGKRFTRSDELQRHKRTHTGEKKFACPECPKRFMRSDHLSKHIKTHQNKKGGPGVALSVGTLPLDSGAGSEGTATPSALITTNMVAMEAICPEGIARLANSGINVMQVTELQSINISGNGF

GGTGAGCCGTTGGGCTGGCCCAAACCGCCC (double strand) [ACC promoter II -389/-359 30-mer (TNF responsive element)]
binding result: binds

From article PMC2365413
